Data on two molecules can be found in paper PMC10505183.

The target of experiment [1] is T1, STR (stunted arbuscule, half-size ABCG transporter) (Medicago truncatula) (UniProt D3GE74).
T1 sequence: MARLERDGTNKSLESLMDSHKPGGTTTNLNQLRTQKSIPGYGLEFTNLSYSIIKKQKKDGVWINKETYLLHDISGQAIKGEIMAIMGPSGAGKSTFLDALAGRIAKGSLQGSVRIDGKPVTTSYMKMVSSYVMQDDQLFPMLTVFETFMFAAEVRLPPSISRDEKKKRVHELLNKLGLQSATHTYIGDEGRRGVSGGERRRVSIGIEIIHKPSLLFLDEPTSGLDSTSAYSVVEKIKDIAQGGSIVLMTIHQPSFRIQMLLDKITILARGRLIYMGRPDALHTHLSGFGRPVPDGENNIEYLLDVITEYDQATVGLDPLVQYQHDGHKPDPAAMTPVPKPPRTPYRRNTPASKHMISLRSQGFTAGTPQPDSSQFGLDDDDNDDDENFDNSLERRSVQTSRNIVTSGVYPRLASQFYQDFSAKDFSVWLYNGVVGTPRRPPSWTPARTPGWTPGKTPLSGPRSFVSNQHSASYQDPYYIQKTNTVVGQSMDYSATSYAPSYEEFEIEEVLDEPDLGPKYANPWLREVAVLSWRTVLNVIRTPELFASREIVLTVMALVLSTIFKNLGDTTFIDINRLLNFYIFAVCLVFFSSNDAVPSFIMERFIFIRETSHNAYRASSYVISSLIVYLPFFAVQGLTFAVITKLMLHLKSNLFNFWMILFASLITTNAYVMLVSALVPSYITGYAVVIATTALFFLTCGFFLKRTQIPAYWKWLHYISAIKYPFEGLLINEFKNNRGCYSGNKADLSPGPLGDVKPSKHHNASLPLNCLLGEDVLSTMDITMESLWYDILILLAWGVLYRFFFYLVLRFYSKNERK
In words: split reporter; BiFC (nYFP/cYFP) in agroinfiltrated N. benthamiana leaves, confocal imaging two days post-inoculation.

Experiment [2] has as its target STR2 (half-size ABCG transporter) (Medicago truncatula) (UniProt A9YWR6). The experiment is described as above.

These are yes or no findings as the source states them, for the method shown. In cells and extracts the contact can be indirect. Some results given as binding are weak or reduced against the parent protein; the word gives no strength.

B1: STR2 (half-size ABCG transporter) (protein, UniProt A9YWR6 1-727)
chain: MKTQGLELETVIDIKHKPVSFTGGLEFESLTYTVTKKKKVDGKWSNEDVDLLHDITGYAPKGCITAVMGPSGAGKSTLLDGLAGRIASGSLKGKVSLDGNSVNASLIKRTSAYIMQEDRLFPMLTVYETLMFAADFRLGPLSAVDKRQRVEKLIEQLGLSSSRNTYIGDEGTRGVSGGERRRVSIGVDIIHGPSLLFLDEPTSGLDSTSALSVIEKLHDIARNGSTVILTIHQPSSRIQLLLDHLIILARGQLMFQGSLKDVGHHLNRMGRKIPKGENPIENLIDVIQEYDQCDFVGVEVLAEFARTGMKPPLLSDMEEIISYTNSIAPSPSPLHRGSKYEEKSQDFSYSSQISRRSLNDEFDHSIRSPYNNTPMSWSASNSAAFLKFTPSRLKNENKVQKPPSHASPGIYTYSSEILPATPTPHSSDYVVDENDYLTPTNSSQEHLGPKFANSYIGETWILMRRNFTNIRRTPELFLSRLMVLTFMGVMMATMFHNPKNTLQGITNRLSFFIFTVCLFFFSSNDAVPAFIQERFIFIRETSHNAYRASCYTIASLITHMPFLALQALAYAAIVWFALELRGPFIYFFLVLFISLLSTNSFVVFVSSIVPNYILGYAAVIAFTALFFLFCGYFLSSEDIPLYWRWMNKVSTMTYPYEGLLMNEYQTNETFGSNDGVSITGFDILKSLHIGTEEIKKRNNVLIMLGWAVLYRILFYIILRFASKNQRS
For B1, the figures for the binding entry in experiment [1] and in experiment [2] were “binds” and “no binding”, respectively.

B2: STR (stunted arbuscule, half-size ABCG transporter) (protein, UniProt D3GE74 1-817)
chain: MARLERDGTNKSLESLMDSHKPGGTTTNLNQLRTQKSIPGYGLEFTNLSYSIIKKQKKDGVWINKETYLLHDISGQAIKGEIMAIMGPSGAGKSTFLDALAGRIAKGSLQGSVRIDGKPVTTSYMKMVSSYVMQDDQLFPMLTVFETFMFAAEVRLPPSISRDEKKKRVHELLNKLGLQSATHTYIGDEGRRGVSGGERRRVSIGIEIIHKPSLLFLDEPTSGLDSTSAYSVVEKIKDIAQGGSIVLMTIHQPSFRIQMLLDKITILARGRLIYMGRPDALHTHLSGFGRPVPDGENNIEYLLDVITEYDQATVGLDPLVQYQHDGHKPDPAAMTPVPKPPRTPYRRNTPASKHMISLRSQGFTAGTPQPDSSQFGLDDDDNDDDENFDNSLERRSVQTSRNIVTSGVYPRLASQFYQDFSAKDFSVWLYNGVVGTPRRPPSWTPARTPGWTPGKTPLSGPRSFVSNQHSASYQDPYYIQKTNTVVGQSMDYSATSYAPSYEEFEIEEVLDEPDLGPKYANPWLREVAVLSWRTVLNVIRTPELFASREIVLTVMALVLSTIFKNLGDTTFIDINRLLNFYIFAVCLVFFSSNDAVPSFIMERFIFIRETSHNAYRASSYVISSLIVYLPFFAVQGLTFAVITKLMLHLKSNLFNFWMILFASLITTNAYVMLVSALVPSYITGYAVVIATTALFFLTCGFFLKRTQIPAYWKWLHYISAIKYPFEGLLINEFKNNRGCYSGNKADLSPGPLGDVKPSKHHNASLPLNCLLGEDVLSTMDITMESLWYDILILLAWGVLYRFFFYLVLRFYSKNERK
For B2, in experiment [1], the binding entry is recorded as “no binding”.
